Measured values taken from doi:10.1101/679480.
Like-named read-outs stand apart in the source and are kept apart here. No constants are given. Whether binding was seen depends on the method and setting. Binding seen in cells or lysates may run through a third protein. Some results given as binding are weak or reduced against the parent protein; the word gives no strength.

Amino acid sequences for entries named in this document (tags omitted).
UniProt Q96GY3: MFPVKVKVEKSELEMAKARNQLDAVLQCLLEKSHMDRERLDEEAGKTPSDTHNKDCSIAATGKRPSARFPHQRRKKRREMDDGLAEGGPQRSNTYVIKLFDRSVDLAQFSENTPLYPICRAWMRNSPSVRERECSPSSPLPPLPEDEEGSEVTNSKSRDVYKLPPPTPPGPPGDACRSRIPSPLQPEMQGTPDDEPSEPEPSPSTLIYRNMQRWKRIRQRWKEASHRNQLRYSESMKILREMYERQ
UniProt P10244: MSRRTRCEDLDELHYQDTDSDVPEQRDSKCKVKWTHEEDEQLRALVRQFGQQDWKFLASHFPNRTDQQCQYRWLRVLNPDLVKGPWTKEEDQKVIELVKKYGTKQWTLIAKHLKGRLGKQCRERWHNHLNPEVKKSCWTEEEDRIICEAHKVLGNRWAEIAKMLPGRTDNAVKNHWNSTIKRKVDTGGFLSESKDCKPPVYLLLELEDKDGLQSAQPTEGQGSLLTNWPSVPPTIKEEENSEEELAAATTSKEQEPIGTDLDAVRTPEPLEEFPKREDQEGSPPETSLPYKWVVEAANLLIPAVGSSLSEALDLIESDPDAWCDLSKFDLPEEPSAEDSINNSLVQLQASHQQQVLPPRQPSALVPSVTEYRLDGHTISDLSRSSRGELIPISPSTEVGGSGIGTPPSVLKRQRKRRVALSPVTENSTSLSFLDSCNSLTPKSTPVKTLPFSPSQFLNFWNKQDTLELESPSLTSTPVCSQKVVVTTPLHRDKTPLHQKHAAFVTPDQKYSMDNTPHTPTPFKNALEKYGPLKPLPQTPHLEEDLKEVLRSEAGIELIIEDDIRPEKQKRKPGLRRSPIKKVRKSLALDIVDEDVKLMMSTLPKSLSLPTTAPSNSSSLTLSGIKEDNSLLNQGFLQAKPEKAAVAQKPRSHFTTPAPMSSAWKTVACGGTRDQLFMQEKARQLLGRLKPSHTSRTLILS
UniProt Q08999: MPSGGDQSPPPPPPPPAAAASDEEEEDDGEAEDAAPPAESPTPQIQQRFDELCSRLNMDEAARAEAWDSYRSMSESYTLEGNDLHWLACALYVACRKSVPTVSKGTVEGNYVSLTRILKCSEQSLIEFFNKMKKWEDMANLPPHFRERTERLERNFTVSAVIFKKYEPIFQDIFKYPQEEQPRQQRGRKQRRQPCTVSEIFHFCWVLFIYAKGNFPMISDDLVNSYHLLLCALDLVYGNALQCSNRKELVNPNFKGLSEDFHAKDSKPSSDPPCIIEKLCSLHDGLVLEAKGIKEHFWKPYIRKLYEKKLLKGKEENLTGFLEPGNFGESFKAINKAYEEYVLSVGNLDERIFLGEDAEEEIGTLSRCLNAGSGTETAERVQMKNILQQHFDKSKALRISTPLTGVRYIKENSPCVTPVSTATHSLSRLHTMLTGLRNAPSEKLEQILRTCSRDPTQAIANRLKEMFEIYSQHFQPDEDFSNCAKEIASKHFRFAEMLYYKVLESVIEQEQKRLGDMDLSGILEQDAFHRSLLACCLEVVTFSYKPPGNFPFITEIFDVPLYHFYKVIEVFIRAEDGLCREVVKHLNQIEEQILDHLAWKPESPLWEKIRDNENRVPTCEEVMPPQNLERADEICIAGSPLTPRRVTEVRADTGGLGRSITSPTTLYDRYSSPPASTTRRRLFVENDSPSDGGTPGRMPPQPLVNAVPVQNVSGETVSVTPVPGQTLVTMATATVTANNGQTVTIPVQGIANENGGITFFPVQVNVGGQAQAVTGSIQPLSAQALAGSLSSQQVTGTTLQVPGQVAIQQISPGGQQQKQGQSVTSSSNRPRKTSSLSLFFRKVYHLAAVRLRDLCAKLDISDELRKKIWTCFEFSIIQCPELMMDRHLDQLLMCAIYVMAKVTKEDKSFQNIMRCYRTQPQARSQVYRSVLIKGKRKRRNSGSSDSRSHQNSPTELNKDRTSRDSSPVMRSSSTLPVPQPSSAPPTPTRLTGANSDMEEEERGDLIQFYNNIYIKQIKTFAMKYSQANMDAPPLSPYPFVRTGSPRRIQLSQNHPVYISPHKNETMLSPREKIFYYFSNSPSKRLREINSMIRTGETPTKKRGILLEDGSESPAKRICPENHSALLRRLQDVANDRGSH

B1: FOXM1 (protein, UniProt Q08050 1-763)
chain: MKTSPRRPLILKRRRLPLPVQNAPSETSEEEPKRSPAQQESNQAEASKEVAESNSCKFPAGIKIINHPTMPNTQVVAIPNNANIHSIITALTAKGKESGSSGPNKFILISCGGAPTQPPGLRPQTQTSYDAKRTEVTLETLGPKPAARDVNLPRPPGALCEQKRETCADGEAAGCTINNSLSNIQWLRKMSSDGLGSRSIKQEMEEKENCHLEQRQVKVEEPSRPSASWQNSVSERPPYSYMAMIQFAINSTERKRMTLKDIYTWIEDHFPYFKHIAKPGWKNSIRHNLSLHDMFVRETSANGKVSFWTIHPSANRYLTLDQVFKPLDPGSPQLPEHLESQQKRPNPELRRNMTIKTELPLGARRKMKPLLPRVSSYLVPIQFPVNQSLVLQPSVKVPLPLAASLMSSELARHSKRVRIAPKVLLAEEGIAPLSSAGPGKEEKLLFGEGFSPLLPVQTIKEEEIQPGEEMPHLARPIKVESPPLEEWPSPAPSFKEESSHSWEDSSQSPTPRPKKSYSGLRSPTRCVSEMLVIQHRERRERSRSRRKQHLLPPCVDEPELLFSEGPSTSRWAAELPFPADSSDPASQLSYSQEVGGPFKTPIKETLPISSTPSKSVLPRTPESWRLTPPAKVGGLDFSPVQTSQGASDPLPDPLGLMDLSTTPLQSAPPLESPQRLLSSEPLDLISVPFGNSSPSDIDVPKPGSPEPQVSGLAANRSLTEGLVLDTMNDSLSKILLDISFPGLDEDPLGPDNINWSQFIPELQ

How the values were obtained:
[1] = target: LIN37 (human (endogenous in meningioma tumor tissue)) (UniProt Q96GY3); assay: co-IP
[2] = target: LIN37 (human (endogenous in meningioma tumor tissue)) (UniProt Q96GY3); assay: co-IP; remark: listed apart in the source

Molecule	binding [1]	binding [2]
MYBL2 (from UniProt P10244 1-700)	binds	–
RBL2 (from UniProt Q08999 1-1139)	binds	–
B1	–	binds
